In PubChem BioAssay AID2685 (National Center for Advancing Translational Sciences (NCATS), 2010):
About 2,100 (0.66%) of roughly 320,000 compounds were called active. Inconclusive results, whose numbers are uncertain, are shown with a selection of clear calls. Calls come from the whole dose curve; as a rule, active = well fitted inhibition curve with a large enough effect in the signal ratio, with a control signal flat (not every such curve was filed as active); inconclusive = small, poorly fitted or top-dose-only effect, or effect the other way, or a change in a side signal; inactive = flat fitted curve, though single readings scatter; the % refers to the signal ratio. Where the call is inconclusive, the potency comes from a doubtful curve fit.

assay: qHTS Assay for Lipid Storage Modulators in Drosophila S3 Cells; conditions: BODIPY lipid droplet fluorescence, 18-24 h, cells fed with added oleic acid; lipid storage change, negative = inhibition: at 46.1 µM (top of the series) unless noted
In short: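 Drosophila S3 cells loaded with oleic acid (400 uM, as added) and compounds at several concentrations; lipid droplets imaged by 488-nm laser-scanning cytometry, 500–530 nm intensity and object ratio to cell channel. Percent activity normalized to 20 uM Triacsin C.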
% is set by controls: 0 for no effect and ±100 for the full control effect; potency is the fitted concentration of half-maximal effect.

Potency, active:
O=C(CCN1C(=O)/C(=C/c2ccc(F)cc2)SC1=S)N[C@@H](CO)Cc1ccccc1 29.1 µM
Cc1cccc(N2CCN(C(=O)COc3ccc4c(c3)CCC4)CC2C)c1 (centres undefined) 2.06 µM

Potency, inconclusive:
CN(C)CCCN(C(=O)c1ccc(C(=O)c2ccccc2)cc1)c1nc2cc3c(cc2s1)OCCO3 1.84 µM [activator, partial curve, poor fit]
Cc1ccc(C(=O)c2c3ccc(C(F)(F)F)cc3[n+]([O-])n2CCCC(N)=O)cc1 4.61 µM [falling, single point]
Cc1cc(C)c(OCCCNCc2ccccc2)c(Br)c1 29.1 µM [activator, single point]
c1coc(Cn2c(SCc3nc4ccccc4[nH]3)nnc2-c2cnccn2)c1 0.0731 µM [rising, partial curve, poor fit]
Cc1ccc(-c2nnn(CCC(=O)Nc3ccc4c(c3)OCO4)n2)cc1 0.651 µM [activator, full curve, poor fit]
O=C1NC(=O)/C(=C/c2ccco2)N1 5.8 µM [activator, full curve]
CCOC(=O)CSc1nc2sc(C)c(C)c2c(=O)n1N 0.0046 µM [activator, full curve, poor fit]
N#Cc1nc(-c2ccc(F)cc2)oc1NCc1ccccc1 2.06 µM [activator, partial curve, poor fit]
COc1ccc(/C=C(\NC(=O)c2ccc(C)cc2)C(=O)NCCCn2ccnc2)cc1 0.164 µM [activator, full curve, poor fit]
CC(C)NC(=S)N/N=C/c1sc(N2CCCCC2)nc1-c1cccs1 1.84 µM [falling, partial curve]
COc1ccc(CN(C)Cc2c(O)ccc3ccccc23)cc1 29.1 µM [activator, single point]
Nc1nonc1C(=O)NCCNC(=O)c1ccc(Cl)cc1 29.1 µM [activator, single point]
Cn1nc(C(=O)Nc2cccnc2)c2ccccc2c1=O 5.8 µM [activator, full curve]
O=C(CSc1nc2ccccc2c(=O)n1-c1ccccc1)NCC1CCCO1 (centres undefined) 29.1 µM [falling, single point]
CC(OC(=O)c1ccc(F)c(S(=O)(=O)N2CCOCC2)c1)C(=O)NCC1CCCCC1 (centres undefined) 5.17 µM [falling, single point]
O=C(NCc1ccc2c(c1)OCO2)C1CCC(CNc2c(N3CCCCC3)c(=O)c2=O)CC1 (centres undefined) 0.58 µM [activator, partial curve]
Cc1ccc(NC(=O)c2ccccc2OCC(=O)c2ccccc2)cc1 1.64 µM [activator, full curve]
C1CCC(NC2=NCCC2)CC1 25.9 µM [activator, single point]
Cc1c(C(=O)N(C)C(C)c2ccccn2)oc2c(F)cccc12 (centres undefined) 1.84 µM [falling, partial curve]
C=CCNc1nc(NCCN2CCOCC2)nc(N2CCOCC2)n1 4.11 µM [falling, full curve, poor fit]
CCOc1ccc(NC(=O)CN(C)C(=O)CCC2CCCCC2)cc1OCC 0.0052 µM [activator, full curve, poor fit]
CCOC(=O)c1nn(-c2cccc(OC)c2)c2nc(Nc3ccccc3)cc(=O)n12 3.26 µM [activator, full curve, poor fit]
COc1cccc(/C=N/NC(=O)CNC(=O)C2COc3ccccc3O2)c1O (centres undefined) 2.91 µM [falling, full curve, poor fit]
c1ccc2c(N3CCCCC3)ncnc2c1 23.1 µM [activator, single point]
COc1ccc(OC)c(NC(=O)CSc2ccc3ccccc3c2)c1 14.6 µM [falling, partial curve]
O=S(=O)(c1cccc(-c2cn3cccnc3n2)c1)N1CCOCC1 4.61 µM [activator, full curve, poor fit]
COc1ccc(C)cc1S(=O)(=O)N1CCN(C(=O)c2ncoc2-c2cccc(C)c2)CC1 0.326 µM [activator, full curve, poor fit]
O=C1/C(=C/c2ccc(F)cc2)SC(=S)N1CC(=O)N1CCCCC1c1cccnc1 (centres undefined) 29.1 µM [falling, single point]

Quoted at random: two records from the list.
Potency, inconclusive:
N#Cc1nc(-c2ccc(F)cc2)oc1NCc1ccccc1 2.06 µM [activator, partial curve, poor fit]
CC(OC(=O)c1ccc(F)c(S(=O)(=O)N2CCOCC2)c1)C(=O)NCC1CCCCC1 (centres undefined) 5.17 µM [falling, single point]

Following part.

Lipid storage change, negative = inhibition, inconclusive:
CC(C)n1c(SCC(=O)Nc2nncs2)nnc1-c1ccco1 -0.592%
COC(=O)c1cc(-c2ccc3c(c2)OCO3)nc2ccccc12 42.8%
COc1cccc(-c2nc(C(=O)NCC3CCCO3)cc3c2[nH]c2ccccc23)c1 (centres undefined) -100%
CC(CCc1ccco1)NC(=O)Cn1nc(Cc2ccncc2)c2ccccc2c1=O (centres undefined) -24.1%
CCC(Sc1nc2ccccc2s1)C(=O)Nc1nnc(C)s1 (centres undefined) 23.3%
CN(C(=O)COC(=O)CSc1ccc(C(N)=O)cc1[N+](=O)[O-])C1CCCCC1 42.4% [activator] [at 0.0737 µM]
Cn1c(=O)[nH]c(=O)c2c1nc(Sc1ccccc1)n2CCc1ccccc1 -5.49%
COc1ccc2oc(=O)c(C(=O)N3CCN(c4ccccc4)CC3)cc2c1 10.9%
CCN1C(=O)C2CCCCN2c2ccc(C(=O)NCCOC)cc21 (centres undefined) 13.2%
CC(C)CC(NC(=O)C1CCC(C)CC1)C(=O)Nc1ccccc1F (centres undefined) 101%
CCOC(=O)c1ccccc1NC(=O)CC1Nc2ccccc2NC1=O (centres undefined) 16.5%
CN(C)S(=O)(=O)c1cccc(NC(=O)CCc2nc3cc(S(=O)(=O)N4CCOCC4)ccc3n2C)c1 18.2%
COc1ccc(OC)c(C2=NOC(C(=O)N3CCN(c4ccccc4)CC3)C2)c1 (centres undefined) 36%
O=C(COC(=O)/C=C/c1ccc(Br)o1)Nc1ccc2[nH]c(=O)[nH]c2c1 -36.4%
CCC(=O)Nc1c(-c2ccc(C)cc2)c(=O)c2ccccc2n1C -12.6%
CCOC(=O)C1C(O)=CC(=O)CC1c1ccccc1 (centres undefined) -2.74%
O=C(C1CCCN(S(=O)(=O)c2ccccc2)C1)N1CCN(c2ncccn2)CC1 (centres undefined) -25.3%
COCCCN(C(=O)Cc1csc(-c2cccc(Cl)c2)n1)c1c(N)n(Cc2ccccc2)c(=O)[nH]c1=O -33.8%
Cc1ccc2ncnc(NCCCCCC(=O)O)c2c1 -0.395%
CCOc1ccc(C(=O)N2CCN(Cc3ccccc3)CC2)cc1OCC 24.8%
Cc1cc(Cl)ccc1NC(=S)NCc1ccc(S(N)(=O)=O)cc1 -22.4%
CCOc1ccc(Br)cc1C(=S)N1CCCC1 -2.89%
COc1ccc(-c2noc(N3CCC(C(=O)Nc4cccc(OC)c4)CC3)n2)cc1 -60.7%
Cc1ccc(S(=O)(=O)Nc2ccc(N3CCOCC3)cc2)cc1[N+](=O)[O-] 50.6%
O=C(COc1ccc(Cl)cc1)Nc1cnn(Cc2c(Cl)cccc2Cl)c1 -11.9%
CC1CC(CC(=O)NC(=S)Nc2ccccc2Cl)C(=O)O1 (centres undefined) -9.84%
O=C(C1CC(c2ccccc2O)=NO1)N1CCc2ccccc2C1 (centres undefined) 80%
Cc1nc2ccccc2nc(=O)c1NNc1ccccc1 8.64%
COc1ccc(N2CCN(CCNC(=O)CCS(=O)(=O)c3cccc4nsnc34)CC2)cc1 3.82%
O=C1NCN(c2ccccc2)C12CCN(CCCC(c1ccc(F)cc1)c1ccc(F)cc1)CC2 -92.2%
Oc1ccc(-c2csc(-c3c[nH]c4ccccc34)n2)c(O)c1 10.9%
Cc1ccc(Cl)c(OCCN2CCc3ccccc3C2)c1 -11%
Cn1c(SCC(=O)N2CCCC2)nc2ccccc21 -20.4%
CCCn1c(=O)c2ccccc2n2c(SCc3cc(=O)oc4ccc5ccccc5c34)nnc12 -25.3%
O=C1OCC/C1=C\c1ccccc1O 1.62%
CCOC(=O)c1cn2c(C)cccc2n1 -8%
CC1CCN(c2c(NCC3CCC(C(=O)N4CCCCC4)CC3)c(=O)c2=O)CC1 (centres undefined) -44.4%
O=S(=O)(Nc1ccc(-n2cnnn2)cc1)c1cccc(Cl)c1
Cc1nn(C(C)C(=O)NCC2CCCO2)c(C)c1[N+](=O)[O-] (centres undefined) 9.91%
CCOC(=O)Cn1ccc(O)c(Cc2ccc(Cl)cc2Cl)c1=O -32.9%
O=C(N/N=C/C=C/c1ccccc1[N+](=O)[O-])c1cc(-c2cccnc2)nc2ccccc12 22.5%
COc1ccc(-n2nc3cc(C)c(NC(=O)CC(C)C)cc3n2)cc1 -20.9%
CCOC(=O)C1=C(CN2CCN(C(=O)OCC)CC2)NC(=O)NC1c1ccc2c(c1)OCO2 (centres undefined) 14.4%

Copied from the results shown for reference:
Lipid storage change, negative = inhibition, inconclusive:
COc1ccc(-n2nc3cc(C)c(NC(=O)CC(C)C)cc3n2)cc1 -20.9%
CCOC(=O)C1=C(CN2CCN(C(=O)OCC)CC2)NC(=O)NC1c1ccc2c(c1)OCO2 (centres undefined) 14.4%

Following part:

Lipid storage change, negative = inhibition, inactive:
COc1ccc(C(=O)NCc2nnc(SCC(=O)Nc3cccc(C(F)(F)F)c3)o2)cc1OC -16.5%
